This note sets out measurements from publication PMC7819943, “Rice protein-binding microarrays: a tool to detect cis-acting elements near promoter regions in rice”.

Protein sequences, listed by entry. Tags and fused reporters are not part of them.
UniProt Q0JBA9, entry or part of it: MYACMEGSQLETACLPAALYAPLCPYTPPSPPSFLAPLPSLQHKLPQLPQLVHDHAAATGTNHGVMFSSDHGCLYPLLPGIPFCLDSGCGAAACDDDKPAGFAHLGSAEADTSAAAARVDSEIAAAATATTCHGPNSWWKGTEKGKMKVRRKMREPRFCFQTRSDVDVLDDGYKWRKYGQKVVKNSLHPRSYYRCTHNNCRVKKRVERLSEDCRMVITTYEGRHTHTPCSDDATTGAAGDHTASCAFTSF

Some of the results follow.

This assay concerns the target OsWRKY34 (Oryza sativa, UniProt Q0JBA9 1-250). The experiment in a line: protein-binding microarray (RPBM); PBS, 2% BSA, 51.3 ng/ul salmon testes DNA, 50 uM zinc acetate, 200 nM TF, 25 C, 1 h; high values mean tight binding. The conditions noted are these: protein: recombinant; tags: N-terminal polyhistidine and DsRed monomer fusion (pET32a); label: CyDye5-dUTP incorporated in the synthesized complementary strand; 3' TTTTT single-stranded linker to array surface; dsDNA, one strand shown. Put shortly: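 Transcription factors were made in E. coli BL21-CodonPlus as N-terminal fusions to a polyhistidine tag and DsRed, then purified on Ni–NTA. After primer extension with Cy5-dUTP and blocking with 2% BSA, a custom Agilent array was exposed for 1 h at 25 °C to 200 nM protein in PBS, 2% BSA, salmon testes DNA and 50 µM zinc acetate. Washed arrays were scanned on an Axon 4000B, and the binding signal is per-feature fluorescence intensity in arbitrary units.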
On to “CTCACGAAACTAATCTGGGCCTTGACACCCACCGACCTACCGGAGTCACCTAGTGCAG”, for which the binding signal was 8900 fluorescence intensity (a.u.).
Take “GGCTCCGCGCGCGCCGTCTTTCTCATGGTCTTTCTCGATGCGGAGTCACCTAGTGCAG”: the binding signal was 8770 fluorescence intensity (a.u.).
Under “TTATATATCTACTCCTTCGCTTCGTACTATAAAACATTTTCGGAGTCACCTAGTGCAG” stands 10600 fluorescence intensity (a.u.); under “CGGGGTCATTTCTCAGGTGCAACGAGTTCAACATTTCAACCGGAGTCACCTAGTGCAG”, 8580 fluorescence intensity (a.u.); under “GGTCATCAGCTCACCACCTTCTTGGCCTCATCGGAGAATGCGGAGTCACCTAGTGCAG”, 8820 fluorescence intensity (a.u.).
Under “CACATGCTTCACTGTATCTTGAATCTTGTCACTCTCTCATCGGAGTCACCTAGTGCAG” stands 10200 fluorescence intensity (a.u.).
Under “ACCTTGACTGGTATTTTTTTTTTGTCTGTTAGTGATGCCACGGAGTCACCTAGTGCAG” stands 8620 fluorescence intensity (a.u.); under “TCCCGGTTCTTTTTTAACCATAACTATTGTGGTTTTGGGGCGGAGTCACCTAGTGCAG”, 10400 fluorescence intensity (a.u.).
For “CCACCGCACCGCACCGCACCGCGCCCTCGCCACCACGGCGCGGAGTCACCTAGTGCAG”, the binding signal is 8630 fluorescence intensity (a.u.).
Under “AGGGTTTTTGGTTAGGCGATTTGTTCTGGGCTTTCCGGCCCGGAGTCACCTAGTGCAG” stands 12200 fluorescence intensity (a.u.).
With “TTTATTTTGGTGACTTTTCTATTTAAAATCATTTATTAACCGGAGTCACCTAGTGCAG”, the binding signal is 8720 fluorescence intensity (a.u.).
Under “ACCAAGTTTCATTCTTCGTACGAAACTACTCCATGAATTCCGGAGTCACCTAGTGCAG” stands 8300 fluorescence intensity (a.u.).
Under “TCTAGTGCCTCGTAGCCTCGTCGCCGCGCGCGTTTAGTTCCGGAGTCACCTAGTGCAG” stands 8030 fluorescence intensity (a.u.).
Under “TCCCACGCCGCCGCCGCCGCCCTCTCTCTCACGCATCCCCCGGAGTCACCTAGTGCAG” stands 8280 fluorescence intensity (a.u.); under “TTATATTTCTACGTTTTTTTATTACTCTATTCTCTTAATCCGGAGTCACCTAGTGCAG”, 9820 fluorescence intensity (a.u.).
For “ATAGGGTCCATAATCTTCTAACGCGCTCATTCGTACTCATCGGAGTCACCTAGTGCAG”, the binding signal is 8420 fluorescence intensity (a.u.).
Under “AGTTTAGTCTTATATTTTAAAATGTATTTGTATACCGTATCGGAGTCACCTAGTGCAG” stands 9200 fluorescence intensity (a.u.); under “GCCACCACCTTCTCATCTGATGTCTTCTCCTTGACCCTTCCGGAGTCACCTAGTGCAG”, 8160 fluorescence intensity (a.u.); under “CGGGAGGGCGAGAGGGTTTTCGGAGCGGGAGGGGAAGATGCGGAGTCACCTAGTGCAG”, 15200 fluorescence intensity (a.u.).
Under “GGGGTTTTTCATCGAAGTTTATTTTTCAACCTTTACTTTTCGGAGTCACCTAGTGCAG” stands 12700 fluorescence intensity (a.u.); under “CCAACATAATGTACATCGACACGCTTCAGAGCGGCACACTCGGAGTCACCTAGTGCAG”, 8460 fluorescence intensity (a.u.); under “TTCACTCTTCACGCCACACTTGGCCGCCGCGTCCATATCTCGGAGTCACCTAGTGCAG”, 8690 fluorescence intensity (a.u.).
Under “TATTTTCTACTTATTTGTTATTTTCTACTTGTATTGAACCCGGAGTCACCTAGTGCAG” stands 8450 fluorescence intensity (a.u.); under “CTTACTCTCGTCCATGCCACCGCTTATCACTAGCTAGCTACGGAGTCACCTAGTGCAG”, 8520 fluorescence intensity (a.u.); under “CAGCATCCATCGCAGCGAGCGACCGTCGGCATCACAAGCCCGGAGTCACCTAGTGCAG”, 8120 fluorescence intensity (a.u.).
As for “TGGGGATGGAGCTTGCCTGGGTGGTGGTGAGGGCGCAGTTCGGAGTCACCTAGTGCAG”, the binding signal was 8680 fluorescence intensity (a.u.).
Under “CGCCGCCCACAGCTTCGCCCGCGCCACCCGTAGCTTCGCCCGGAGTCACCTAGTGCAG” stands 8420 fluorescence intensity (a.u.); under “CTCCGATCGAGGGGTTGTCGTCTCCGCGCGGTGGCGGGGCCGGAGTCACCTAGTGCAG”, 8200 fluorescence intensity (a.u.); under “TCCATCCGGGCCGTTCGCTTTCCGTTTTTATTTTCCTCCTCGGAGTCACCTAGTGCAG”, 11200 fluorescence intensity (a.u.).
Under “AATCCCGAACCTGCGCCGCGTCATTTGAGCAAATTCTGTACGGAGTCACCTAGTGCAG” stands 8300 fluorescence intensity (a.u.); under “GATTCCTTCCTTTTGTTTTTGGGCCGAATTCTCCTTCTTTCGGAGTCACCTAGTGCAG”, 13000 fluorescence intensity (a.u.); under “GAGGCATTACAGTATTATGAATCGATCTTGTGTTATTTTGCGGAGTCACCTAGTGCAG”, 8350 fluorescence intensity (a.u.).
Under “GTAATTTCCCGGGTTTCCCATGCATCTCCTCTCGTCGCTGCGGAGTCACCTAGTGCAG” stands 10500 fluorescence intensity (a.u.).
For the sequence “GCGCGCCGCCGCTCATCGCCATCCACCCGCACCCTCCCAACGGAGTCACCTAGTGCAG”, the binding signal was 9720 fluorescence intensity (a.u.).
Under “ATAAATTATTCACTGTTGACACTTAAGGATTTGACTTTACCGGAGTCACCTAGTGCAG” stands 8610 fluorescence intensity (a.u.); under “TACTATTCTCCTAATTAGTACTCCATCCGTCCTAAAATATCGGAGTCACCTAGTGCAG”, 10300 fluorescence intensity (a.u.); under “ACACACACAACTTTTCAGTCGCATCATCTCCAATTTCAACCGGAGTCACCTAGTGCAG”, 9260 fluorescence intensity (a.u.).
Under “GATTTGTGTTTTTTTATGTAAGTCTACTTCTACACCCAATCGGAGTCACCTAGTGCAG” stands 8510 fluorescence intensity (a.u.).
For the sequence “CTCGCTTCGCTTCTTCTCCTCTCTCTCTCTCTATCTTCACCGGAGTCACCTAGTGCAG”, the binding signal was 9060 fluorescence intensity (a.u.).
Consider “GGCGTCGATCTGGAGGCGGTCGGCGGGGAGGGGCGCCGGCCGGAGTCACCTAGTGCAG”, for which the binding signal is 14900 fluorescence intensity (a.u.).
Under “TGTAACATGAGGATGTGTTATACCCAGTTTTGCAATTGAGCGGAGTCACCTAGTGCAG” stands 8130 fluorescence intensity (a.u.).
Under “CATCTTTTTTTTTAAGGGTTAGTGTAGGTCGTCATGACAGCGGAGTCACCTAGTGCAG” stands 8060 fluorescence intensity (a.u.).
